Results of single-concentration screens

Chains of the proteins cited; added tags and fusions are not shown.
UniProt P9WFT3, whole entry: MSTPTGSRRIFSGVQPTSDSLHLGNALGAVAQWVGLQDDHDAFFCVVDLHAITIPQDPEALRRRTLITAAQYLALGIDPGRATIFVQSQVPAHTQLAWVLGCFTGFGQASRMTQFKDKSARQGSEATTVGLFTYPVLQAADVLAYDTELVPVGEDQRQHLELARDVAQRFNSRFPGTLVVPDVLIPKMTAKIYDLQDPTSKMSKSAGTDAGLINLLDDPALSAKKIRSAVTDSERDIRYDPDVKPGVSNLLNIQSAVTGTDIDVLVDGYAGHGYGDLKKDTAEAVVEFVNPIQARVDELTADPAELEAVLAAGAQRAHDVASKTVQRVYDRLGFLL

A: 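Cell assay of Leishmania donovani living inside macrophages; the read-out is not stated. Tested at 30 µM. The record gives no direction; compounds that gave an IC50 in retests scored well above the rest, so higher reads as stronger inhibition. Of about 69,000 compounds tested this way, about 1,000 (1.5%) reached 50% or more in at least one test.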
B: 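Enzyme assay of tryptophanyl-tRNA synthetase; the read-out is not stated. Target: Tryptophan-tRNA ligase, Mycobacterium tuberculosis (UniProt P9WFT3). Tested at 10 µM. Direction is not recorded; retested compounds ran higher, which suggests that high means inhibition. About 65,000 compounds were tested under these conditions; 0.098% (about 64) showed 50% or more at least once.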
C: 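Whole-parasite assay of Trypanosoma brucei over 72 hours; the read-out is not stated. Tested at 30 µM. The record gives no direction; compounds that gave an IC50 in retests scored well above the rest, so higher reads as stronger inhibition. Values scatter widely below zero; nearly all retest evidence comes from the higher of the two concentrations used. Size under these conditions: about 64,000 compounds, about 940 of them at 50% or above in at least one test.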

Each number is a percent effect as filed. How 0% and 100% were set is not recorded. Most values in the screen are low, and negative values occur. This is an unselected part of the compounds tested. Two or more numbers in one place are separate tests of the same structure; such repeats can differ widely. A dash means the value is not listed here; it may have been measured.

| SMILES | A | B | C |
|---|---|---|---|
| `Cc1ccc(-c2nc(CN3CCOC(CN(C)C)C3)co2)cc1` (stereo not shown) | 22.94 | -2.3 | -1.882 |
| `CCNc1nnc(SCc2nnc(C(C)(C)C)o2)s1` | 34.35 | -6.118 | -10.59 |
| `COc1ccccc1C1(CNc2cc(C(=O)N(C)C)ccn2)CC1` | 16.93 | 0.2064 | -21.75 |
| `CC(C)c1nccn1C1CCCN(C(=O)c2ccc3c(c2)OCO3)C1` (stereo not shown) | -9.521 | 3.362 | -7.756 |
| `Cc1ccc(N2CCc3c(CN(C)Cc4ccco4)cncc3C2)nn1` | - | 0.08865 | - |
| `Cn1nc(C(=O)N2CCOCC2)c2c1CN(CC1CC1)C2.O=C(O)C(F)(F)F.O=C(O)C(F)(F)F` | 55.32 | - | -90.45 |
| `O=C(O)C(F)(F)F.[H][C@@]12CCN(C(=O)NC)CC[C@]1(C(=O)N1CCOCC1)CCN2C` | -2.014 | - | -5.197 |
| `CCOC(=O)[C@H]1CNC[C@@H]1C(F)(F)F` | 5.661 | -0.7148 | - |
| `COCCN(Cc1sccc1C)C(=O)c1c(O)cccc1F` | 21.97 | 0.2681 | -0.3465 |
| `Cc1cc(NCCN)nc2ccccc12` | - | -9.675 | - |
| `CN(C)CC(=O)N1Cc2nnn(C)c2C(COCc2ccccn2)C1.O=C(O)C(F)(F)F.O=C(O)C(F)(F)F` (stereo not shown) | -17.71 | - | -44.26 |
| `Cc1nc(-c2ccc(CC(=O)N3CCN(C(=O)C4CC4)CC3)cc2)cs1` | 13.68 | 1.816 | -5.28 |
| `CN(C)c1ncc2c(n1)C1(CCN(CC3CC3)C1)COC2` (stereo not shown) | - | -3.536 | - |
| `CCc1n[nH]c(C2CN(C(=O)c3ncoc3C(C)C)CCO2)n1` (stereo not shown) | -2.635 | 3.008 | 10.22 |
| `CCC(CO)NCc1ccc(-c2ccc(F)c(Cl)c2)o1.Cl` (stereo not shown) | 76.93 | - | -23.22 |
| `Cc1ccc(S(=O)(=O)N2CCC(c3n[nH]cc3C)C2)cc1` (stereo not shown) | -6.43 | - | 13.73 |
| `CCC(CO)NCc1ccc(-c2ccc(Cl)cc2)o1` (stereo not shown) | - | -2.039 | - |
| `Cc1ccc(NC(=O)CCc2cnn(C)c2)cc1F` | -24.56 | 1.295 | -11.9 |
| `O=C(COc1coc(CN2CCCCC2)cc1=O)c1ccc(Cl)cc1` | 3.209 & 24.31 | 4.703 | -36.6 |
| `COc1ccc(C[C@H]2CN(Cc3ccoc3)CC[C@H]2OC)cc1.O=C(O)C(F)(F)F` | 40.35 | - | 17.62 |
| `COCC1CN(C(=O)c2ccoc2C)Cc2nccn2C1` (stereo not shown) | -2.348 | -5.11 | -16.57 |
| `CN1C(=O)C2(CCN(c3nccc4occc34)CC2)c2ccccc21` | -20.59 | 1.882 | -4.362 |
| `Cn1nc(COCC2CC2)c2c1CCN(Cc1ccco1)C2` | - | -2.506 | - |
| `COCCn1ccnc1C1CCCN(C(=O)c2ccncc2F)C1` (stereo not shown) | -19.32 | 9.237 | -26.92 |
| `COCCc1noc(CN2CCC(c3ccccc3C(=O)O)C2)n1` (stereo not shown) | 29.59 | 3.118 | -15.17 |
| `Cc1ccc(C(=O)N2C[C@@H]3CC[C@H](C2)N(CC2CCC2)C3)s1` | - | 0.7435 | - |
| `Cc1nn2cnnc2c(C)c1CCC(=O)Nc1nnc(C2CC2)s1` | 16.91 | 1.078 | 2.425 |
| `Cc1oc(CN(C)C(=O)c2ccc(C(F)(F)F)cc2)cc1C(=O)O` | -20.84 | -4.782 | -23.43 |
| `COc1ccc(CN2CCc3nc4ccsc4c(=O)n3CC2)c(C)c1C` | -6.794 | - | 7.671 |
| `COc1cc2nc(C)n(CC(=O)NCCCN(C)C)c(=O)c2cc1OC` | -1.088 | -5.628 | 41.24 |
| `Cc1cccc(CN2C[C@@H]3CC[C@H](C2)N(Cc2c(C)noc2C)C3=O)n1` | - | 4.155 | - |
| `CC(C)CN1C[C@H]2CCN(Cc3cccnc3)CC[C@H]2S1(=O)=O` | - | 4.098 | - |
| `Cl.Cn1ccnc1C1(O)CCN(C(=O)Cc2ccccc2)CC1` | -27.92 | - | -17.46 |
| `O=C(O)C(F)(F)F.[H][C@@]12CCN(C(=O)Cc3ccccc3)CC[C@]1(C(=O)N(C)C)CCN2CC` | 8.532 | - | -12.32 |
| `Cn1cc(S(=O)(=O)Nc2ccc3[nH]c(C4CCC4)nc3c2)cn1` | -0.8626 | -1.067 | 1.182 |
| `CC(C)(CNC(=O)CSc1nnnn1C1CC1)c1ccccc1F` | 19.24 | -2.017 | -36.13 |
| `COCC(=O)N1CCCC(Cc2cnc(-c3c(C)n[nH]c3C)cn2)C1` (stereo not shown) | -1.596 & 0.5788 | -1.565 | -16.63 |
| `Cn1cccc1C(CNC(=O)c1ccc(F)cc1F)N1CCCCCC1` (stereo not shown) | 1.807 | 12.9 | 10.71 |
| `CCN(Cc1noc(CC(C)C)n1)Cc1ccccc1Cl` | -26.96 | 3.073 | 100 |
| `O=C(NC1CC(=O)N(Cc2cccc(F)c2)C1)c1ccncc1` (stereo not shown) | 12.69 | -0.2322 | -12.4 |
| `CCN1CC2(CCN(C(=O)N(C)C)CC2)COc2ccccc2S1(=O)=O` | 20.64 | -0.6352 | -27.05 |
| `[H][C@]12CN(Cc3ncccn3)CC[C@@]1(O)CCN(C(=O)C1CCC1)C2` | 14.32 | - | 4.365 |
| `Cc1cc(NCc2ccccc2)nc2[nH]nc(N)c12` | 3.898 | 0.07003 | -32.11 |
| `CSC1(CNC(=O)NC(C)c2ccc(F)c(F)c2)CCOCC1` (stereo not shown) | 35.32 | -3.076 | -28.23 |
| `O=C(c1cnc2ccccn12)N1CCCC(c2ccn[nH]2)C1` (stereo not shown) | -9.551 | -0.153 | -45.92 |
| `O=C(c1ccnn1COc1ccc(Cl)cc1)N1CCSCC1` | -60.15 | 2.184 | -6.279 |
| `CN(C)C(=O)COCc1cncc2c1CCN(Cc1cnn(C)c1)C2` | - | 5.054 | - |
| `O=C(Nc1nc2c(s1)CN(S(=O)(=O)C1CC1)CC2)C1CC1` | -16.14 & -18.7 | 5.425 | -12.08 |
| `O=C1[C@H]2CC[C@H](CN(S(=O)(=O)c3ccccc3)C2)N1Cc1cscn1` | - | -0.5757 | - |
| `N#Cc1ccc(F)c(CN2CCCCC2Cn2cccn2)c1` (stereo not shown) | 11.74 | -6.198 | 2.451 |
| `O=C(O)C(F)(F)F.[H][C@@]12OCCC[C@]1([H])N(C(=O)c1cnccn1)C[C@H]2OCc1ccncc1` | 34.34 | - | -46.27 |
| `CC1c2ncc(Cn3cccn3)n2CCN1c1ncccn1.O=C(O)C(F)(F)F` (stereo not shown) | 28.85 | - | 2.693 |
| `CN(CC(=O)N1CCCC1Cn1cccn1)c1cnccn1` (stereo not shown) | 4.035 | 1.495 | -32.82 |
| `CCCS(=O)(=O)N1CCC2(CN(c3cnn(C)c3)C(=O)CN2C)C1.O=C(O)C(F)(F)F` (stereo not shown) | 0.7753 | - | -54.8 |
| `c1nc2c(c(N3CCOCC3)n1)CCNCC2` | 7.011 | - | -41.79 |
| `COCc1cncc2c1CCN(Cc1cnn(C)c1)C2.O=C(O)C(F)(F)F.O=C(O)C(F)(F)F` | -53.27 | - | -21.51 |
| `O=C(CC1CCCC1)N1CCC2(CCN2Cc2ccc(F)cc2)C1.O=C(O)C(F)(F)F` (stereo not shown) | -0.5474 | - | -0.9298 |
| `O=C1N[C@H]2OCCC[C@H]2[C@H](c2ccc(C(=O)O)cc2)N1` | - | 2.995 | - |

4 of the entries, repeated:

| SMILES | A | B | C |
|---|---|---|---|
| `O=C(O)C(F)(F)F.[H][C@@]12OCCC[C@]1([H])N(C(=O)c1cnccn1)C[C@H]2OCc1ccncc1` | 34.34 | - | -46.27 |
| `CC1c2ncc(Cn3cccn3)n2CCN1c1ncccn1.O=C(O)C(F)(F)F` (stereo not shown) | 28.85 | - | 2.693 |
| `c1nc2c(c(N3CCOCC3)n1)CCNCC2` | 7.011 | - | -41.79 |
| `Cc1ccc(S(=O)(=O)N2CCC(c3n[nH]cc3C)C2)cc1` (stereo not shown) | -6.43 | - | 13.73 |

Source: ChEMBL document CHEMBL3988442, “University of Dundee, Small-Polar-MMV Screening Library” (2021).